Reference: PubChem BioAssay AID1259308 (NCATS, 2017)
The deposit covers about 59,000 reagents; this is an unselected part. About 1,510 of all reagents (2.6%) count as active. 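Calls use total luciferase alone and ignore viability, so some active siRNAs may act by altering cell number.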 Further read-outs or replicates are left out here. Reagent sequences are not shown.

Purpose: 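Genes whose loss raises luciferase production in HEK293 cells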 (primary screen)
System: human HEK293 embryonic kidney cells stably expressing firefly luciferase (HEK-CMV-Luc2-Hygro)
Reagents: single siRNA against human genes, 0.8 pmol siRNA per well
Duration: 72 h
Read-out: 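Reporter luminescence and viable-cell signal on separate replicate plates, given as percent of non-targeting control and median/MAD z-scores, plus per-cell luciferase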
Reading the numbers: total luciferase, z-score and total luciferase, % of control: higher = more reporter protein produced
Hit rule: 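Active when the median/MAD z-score for overall luciferase is greater than 3; a gene was taken forward for validation with new siRNAs if at least two of its three siRNAs passed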
Meaning of the calls: active = raised luciferase; inactive = no rise

The first 2 entries, to show the layout:
| target | PubChem SID | total luciferase, z-score | total luciferase, % of control | outcome |
| --- | --- | --- | --- | --- |
| SEL1L3 | SID160735779 | -0.647 | 69 | inactive |
| SEL1L3 | SID160735780 | 1.01 | 102 | inactive |

Main list, from the first entry:
| target | PubChem SID | total luciferase, z-score | total luciferase, % of control | outcome |
| --- | --- | --- | --- | --- |
| SEL1L3 | SID160735779 | -0.647 | 69 | inactive |
| SEL1L3 | SID160735780 | 1.01 | 102 | inactive |
| SEL1L3 | SID160735781 | -0.0123 | 81.6 | inactive |
| LOC644215 | SID160769150 | -0.394 | 74 | inactive |
| LOC644215 | SID160769151 | 0.828 | 98.4 | inactive |
| LOC644215 | SID160769152 | -0.723 | 67.5 | inactive |
| RASGEF1C | SID160762329 | -1.22 | 57.7 | inactive |
| RASGEF1C | SID160762331 | -0.0285 | 81.3 | inactive |
| RASGEF1C | SID160762332 | 0.643 | 94.7 | inactive |
| DHX40 | SID160749136 | 5.52 | 192 | active |
| DHX40 | SID160749137 | 0.2 | 85.9 | inactive |
| DHX40 | SID160749138 | 0.363 | 89.1 | inactive |
| ZNF136 | SID160719162 | -0.362 | 74.7 | inactive |
| ZNF136 | SID160719163 | -1.1 | 60.1 | inactive |
| ZNF136 | SID160731890 | -0.196 | 78 | inactive |
| SHISA3 | SID160759254 | -0.0106 | 81.7 | inactive |
| SHISA3 | SID160759256 | 2.33 | 128 | inactive |
| SHISA3 | SID160759257 | -0.248 | 76.9 | inactive |
| CCDC174 | SID160740392 | 5.24 | 186 | active |
| CCDC174 | SID160740393 | 3.15 | 145 | active |
| CCDC174 | SID160740394 | -0.0849 | 80.2 | inactive |
| RPL6P1 | SID160767819 | 0.56 | 93 | inactive |
| RPL6P1 | SID160767820 | 0.959 | 101 | inactive |
| RPL6P1 | SID160767821 | 0.611 | 94 | inactive |
| FAM170B | SID160760396 | 0.444 | 90.7 | inactive |
| FAM170B | SID160760397 | -0.567 | 70.6 | inactive |
| FAM170B | SID160760398 | -0.113 | 79.6 | inactive |
| ZDHHC23 | SID160762235 | -0.453 | 72.9 | inactive |
| ZDHHC23 | SID160762236 | -0.322 | 75.5 | inactive |
| ZDHHC23 | SID160762237 | -0.782 | 66.3 | inactive |
| CST9L | SID160732450 | 0.864 | 99.1 | inactive |
| CST9L | SID160756801 | 0.349 | 88.8 | inactive |
| CST9L | SID160756802 | -0.911 | 63.8 | inactive |
| LERFS | SID160767511 | 2.68 | 135 | inactive |
| LERFS | SID160767512 | 0.135 | 84.6 | inactive |
| LERFS | SID160767513 | 0.169 | 85.2 | inactive |
| ZNF815P | SID160733338 | -0.381 | 74.3 | inactive |
| ZNF815P | SID160767249 | 0.506 | 91.9 | inactive |
| ZNF815P | SID160767250 | 0.188 | 85.6 | inactive |
| HDC | SID160774895 | -1.01 | 61.9 | inactive |
| HDC | SID160774896 | -1.26 | 56.8 | inactive |
| HDC | SID160774897 | 0.624 | 94.3 | inactive |
| DPAGT1 | SID160755853 | 0.773 | 97.3 | inactive |
| DPAGT1 | SID160755863 | -0.142 | 79.1 | inactive |
| DPAGT1 | SID160755871 | 0.148 | 84.8 | inactive |
| VPS37B | SID160749275 | 0.891 | 99.6 | inactive |
| VPS37B | SID160749276 | -0.276 | 76.4 | inactive |
| VPS37B | SID160749277 | -0.832 | 65.3 | inactive |
| DIS3 | SID160732859 | -0.0256 | 81.4 | inactive |
| DIS3 | SID160732870 | 0.284 | 87.5 | inactive |
| DIS3 | SID160732880 | 0.39 | 89.6 | inactive |
| SIAH1 | SID160716712 | -1.01 | 61.8 | inactive |
| SIAH1 | SID160716713 | -0.602 | 69.9 | inactive |
| SIAH1 | SID160716714 | -0.963 | 62.7 | inactive |
| FREM3 | SID160760218 | -0.0269 | 81.4 | inactive |
| FREM3 | SID160760219 | -0.965 | 62.7 | inactive |
| FREM3 | SID160760220 | -0.0743 | 80.4 | inactive |
